Reference: ChEMBL document CHEMBL4765265, “4-Substituted picolinohydrazonamides as a new class of potential antitubercular agents” (Eur J Med Chem, 2020)
Values after ≈ are worked out from the molar mass of the structure shown.

Legend:
Assay type in all cases: functional
Pseudomonas aeruginosa = assay: Antibacterial activity against Pseudomonas aeruginosa ATCC 9027 assessed as reduction in bacterial growth incubated for 24 hrs by broth microdilution assay
How it was run: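 Twofold serial broth microdilution in Mueller-Hinton broth, supplemented with 5% lysed sheep blood for fastidious species. […]. Inoculum was set to 0.5 McFarland in 0.85% NaCl, giving a final 1.5 × 10⁶ CFU/mL. Plates were incubated 24 h at 35 °C. MIC was read visually as the lowest concentration with complete growth inhibition. Controls: 10% DMSO (final), growth and sterility. Triplicate.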

Candida albicans [1] = assay: Antifungal activity against Candida albicans ATCC 2091 assessed as reduction in fungal growth incubated for 48 hrs by broth microdilution assay
How it was run: (§1)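 Yeasts were tested by twofold broth microdilution in Mueller-Hinton broth with 2% glucose at final concentrations of 0.98–1000 µg/mL. Inoculum was prepared from 0.5 McFarland suspensions in 0.85% NaCl, giving a final 5 × 10⁴ CFU/mL. Incubation was 48 h at 30 °C. MIC was the lowest concentration visually showing complete growth inhibition. Controls: 10% DMSO (final), growth and sterility. Triplicate.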

Candida albicans [2] = assay: Antifungal activity against Candida albicans ATCC […] assessed as reduction in fungal growth incubated for 48 hrs by broth microdilution assay; how it was run: as §1

Structure (SMILES)	MIC (Pseudomonas aeruginosa)	MIC (Candida albicans [1])	MIC (Candida albicans [2])
O=C(O)c1cn(C2CC2)c2cc(N3CCNCC3)c(F)cc2c1=O [CIPROFLOXACIN]	0.49 µg/mL (≈ 1.48 µM)		
OC(Cn1cncn1)(Cn1cncn1)c1ccc(F)cc1F [FLUCONAZOLE]		0.25 µg/mL (≈ 0.816 µM)	0.98 µg/mL (≈ 3.2 µM)
